# Source: PubChem BioAssay AID1259354 (Paczesny and Yang Labs, IUPUI and University of Michigan, 2018)
# Amino acid sequences for entries named in this document (tags omitted). A change or cut given only in a name is not applied to a line headed by its entry.
# UniProt Q01638: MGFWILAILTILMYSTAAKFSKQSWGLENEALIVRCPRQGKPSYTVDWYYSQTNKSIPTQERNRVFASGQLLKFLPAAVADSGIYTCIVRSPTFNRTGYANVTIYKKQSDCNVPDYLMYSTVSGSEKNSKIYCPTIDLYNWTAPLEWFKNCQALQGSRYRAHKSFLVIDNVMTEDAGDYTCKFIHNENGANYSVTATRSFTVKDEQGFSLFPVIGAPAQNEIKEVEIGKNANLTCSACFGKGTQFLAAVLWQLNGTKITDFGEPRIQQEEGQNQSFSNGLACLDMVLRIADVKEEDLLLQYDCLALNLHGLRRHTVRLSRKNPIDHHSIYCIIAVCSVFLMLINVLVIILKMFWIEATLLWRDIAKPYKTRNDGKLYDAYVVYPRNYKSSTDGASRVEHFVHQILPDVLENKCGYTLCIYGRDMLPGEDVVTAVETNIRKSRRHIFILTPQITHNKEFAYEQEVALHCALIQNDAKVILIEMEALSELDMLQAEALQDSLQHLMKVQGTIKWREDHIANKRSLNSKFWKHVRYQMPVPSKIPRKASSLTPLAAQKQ
# About 1,800 (2.3%) of roughly 78,000 compounds were called active. Inconclusive results, whose numbers are uncertain, are shown with a selection of clear calls. No stated cut-off is given here; in the data, active means inhibition above about 30%; inconclusive means mostly about 10% to 28%; inactive means weaker than that.
# Molecular target: Interleukin-1 receptor-like 1 (Homo sapiens) (UniProt Q01638)
# Assay: blocks human ST2 binding to IL-33, primary screen, biochemical, AlphaLISA (AID 1259354)
# Settings: AlphaLISA ST2-Fc/biotin-IL-33 interaction, 1 h; at 17 µM, active compounds read high
row,Compound,inhibition
1,CCC12CN3CC(CC)(CN(C1)C3c1cccs1)C2=O (stereo not given),inconclusive: 13%
2,O=C(CN1C(=O)COc2ccc(S(=O)(=O)N3CCCC3)cc21)NCc1cccnc1,inactive
3,CCNC(=O)c1c(NC(=O)c2ccccc2[N+](=O)[O-])sc2c1CCCC2,inconclusive: 28%
4,CC1(C)CC(=O)C2=C(C1)Nc1ccccc1NC2c1ccc([N+](=O)[O-])o1 (stereo not given),inconclusive: 11%
5,CN(C)CCCNC(=O)c1cc(-c2ccc(Br)s2)nc2ccccc12,inconclusive: 11%
6,CC(=O)Nc1cc(C(=O)N2CCOc3ccccc3C2)c2c(c1)nc(C)n2Cc1ccccc1,inconclusive: 15%
7,O=C(c1cn[nH]n1)N1CCC(COc2ccc3c(c2)CCC3)CC1,inconclusive: 15%
8,Cc1nc2cc(-c3ccccc3)nn2c(C)c1CCC(=O)NCc1cccs1,inactive
9,COc1cc2c(cc1OC)CN(C(=O)C[C@@H]1CCNC[C@@H]1Cc1cc(-c3ccccn3)on1)CC2,inconclusive: 10%
10,Cc1nonc1C(=O)N1CCCC(CCc2ccc(F)cc2)C1 (stereo not given),inactive
11,CCN(CC)c1ccn(-c2nc(-c3ccccc3)oc2-c2ccccc2)c(=O)n1,inactive
12,COc1ccc(-c2nnc3n2N=C(c2ccc(Br)s2)CS3)cc1,inactive
13,COc1ccc(C2C(=C(O)c3ccccc3)C(=O)C(=O)N2c2nccs2)cc1OC (stereo not given),inactive
14,O=C(NCCc1nc2cccnc2n1-c1ccccc1)Nc1ccccc1Cl,inactive
15,CC(=O)Nc1cccc(NC(=O)c2ccccc2[N+](=O)[O-])c1,inconclusive: 23%
16,O=C(CC(c1ccccc1)c1ccccc1F)N1CCC(CO)CC1 (stereo not given),inconclusive: 10%
17,COCCN1C(=O)CO[C@H]2CN(c3nccc(C(F)(F)F)n3)C[C@H]21,inconclusive: 11%
18,CC(C)Cc1cc(C(=O)NCc2cccnc2)no1,inconclusive: 20%
19,COc1ccc2oc(=O)c(NC(=O)/C=C/c3ccccc3)cc2c1,inactive
20,COc1cc(C(=O)Nc2ncccc2Cl)cc(OC)c1OC,inactive
21,CC(C)c1cc(C(=O)NC(Cn2ccnc2)C(C)C)nc2ncnn12 (stereo not given),active: 30%
22,Cc1ccc(C23C[C@@H]4C[C@@H](CC(C(=O)NC(C)C(=O)O)(C4)C2)C3)cc1 (stereo not given in full),inactive
23,CN1CCN(CCCCOc2ccc(Cl)c(Cl)c2)CC1,inconclusive: 10%
24,Cc1occc1C(=O)N(C)C(Cc1ccccc1)C1CCN(C(=O)c2ccc3nccnc3c2)CC1 (stereo not given),inconclusive: 10%

# Ordered by molecular weight (descending): part of the list above
row,Compound,inhibition
8,Cc1nc2cc(-c3ccccc3)nn2c(C)c1CCC(=O)NCc1cccs1,inactive
17,COCCN1C(=O)CO[C@H]2CN(c3nccc(C(F)(F)F)n3)C[C@H]21,inconclusive: 11%
22,Cc1ccc(C23C[C@@H]4C[C@@H](CC(C(=O)NC(C)C(=O)O)(C4)C2)C3)cc1 (stereo not given in full),inactive
20,COc1cc(C(=O)Nc2ncccc2Cl)cc(OC)c1OC,inactive
1,CCC12CN3CC(CC)(CN(C1)C3c1cccs1)C2=O (stereo not given),inconclusive: 13%
18,CC(C)Cc1cc(C(=O)NCc2cccnc2)no1,inconclusive: 20%

# More results:

row,Compound,inhibition
1,O=C(NC1CCCCC1)C1c2ccccc2C(=O)N1Cc1ccccc1Cl (stereo not given),inconclusive: 16%
2,O=C(NC1CCCCC1)c1ccc2c(c1)N(Cc1ccc(F)cc1Cl)C(=O)CS2,inactive
3,O=C(COc1ccc([N+](=O)[O-])cc1)Nc1ccc(S(=O)(=O)N2CCCC2)cc1,inactive
4,O=C(c1ccc(Cl)cc1)N(c1ccc(Cl)cc1)C1C=CS(=O)(=O)C1 (stereo not given),inconclusive: 10%
5,COc1ccc(-c2ccnc(N[C@H]3CO[C@H]4[C@@H]3OC[C@@H]4NC(=S)NC3CCCCC3)n2)cc1,inconclusive: 19%
6,CCCc1oc2cc(O)c(CC)cc2c(=O)c1-c1ccc2c(c1)OCCCO2,inconclusive: 15%
7,CCOC(=O)C1CCN(S(=O)(=O)NCc2ccccc2)CC1,inconclusive: 19%
8,CC(CCn1cccn1)NCc1c(C(=O)N2CCCCCCC2)nc2ccc(Cl)cn12 (stereo not given),inconclusive: 15%
9,O=[N+]([O-])c1ccccc1CN1CCCC1,inconclusive: 12%
10,CN1[C@@H](CCC(=O)NCc2ccc(F)cc2)CNC(=O)[C@H]2NCC[C@H]21,inconclusive: 12%
11,COc1ccccc1NC(NC(=O)c1ccc(Br)cc1)C(Cl)(Cl)Cl (stereo not given),inactive
12,Cn1cc(CN(C(=O)C2CCCN(Cc3ccco3)C2)C2CC2)cn1 (stereo not given),inconclusive: 15%
13,O=C(c1cc(-c2ccncc2)nc2ccccc12)N1CCN(c2ccccn2)CC1,inconclusive: 12%
14,O=C(c1cccn2c(=O)c3sccc3nc12)N1CCN(c2ccc(Cl)cc2)CC1,inactive
15,O=c1[nH]c(/C=C/c2cccs2)c([N+](=O)[O-])c(=O)[nH]1,inconclusive: 10%
16,O=C1c2ccc(F)cc2C(=O)N1Cc1ccc(F)cc1,inactive
17,O=C(CN1CCN(Cc2ccccc2F)C1=O)NC1CCCCCCC1,inactive
18,CSCCCN1CCC2(CCCN(Cc3ccc(F)c(F)c3)C2)C1 (stereo not given),inconclusive: 15%
19,O=C(CSc1nc2ccccc2o1)Nc1ccc(C(=O)O)cc1,inactive
20,CC(=O)N1N=C(c2ccc(Br)cc2)OC12CCCCC2,inconclusive: 20%
21,Cc1ccc(S(=O)(=O)NCCCO)cc1,inactive
22,COc1ccc(CC(=O)c2ccc(O)cc2O)cc1OC,inconclusive: 11%
23,Cc1ccc(S(=O)(=O)NCc2nc3cccnc3n2Cc2ccccc2)c(C)c1,inconclusive: 22%
24,CC(=O)Nc1ccc(NC(=O)c2cc(Cl)ccc2Cl)cc1,inactive

row,Compound,inhibition
1,COCC1(C(=O)N2CCn3cccc3C2c2ccccn2)CCC1 (stereo not given),inactive
2,COCCCNC(=O)CSC1=Nc2ccccc2C2=NC(Cc3c[nH]c4ccccc34)C(=O)N12 (stereo not given),inconclusive: 10%
3,N#CC1=C(N)OC2=C(CC/C2=C\c2cccc(F)c2)C1c1cccc(F)c1 (stereo not given),inconclusive: 28%
4,c1cnc(-c2cc(NC3CCNCC3)nc3[nH]ccc23)nc1,active: 41%
5,CC(C)C[C@@H](N)C(=O)N(C)Cc1cc(-c2ccccc2)no1,inactive
6,COc1ccc(NC(=O)c2noc3c2CCCC3)cc1,inconclusive: 12%
7,O=C(Cc1ccc(F)cc1)N1CCN=C1SCc1ccc(Br)cc1,inactive
8,CNCC(=O)NC(c1cc(C)ccn1)C1CC1 (stereo not given),inactive
9,CC(=O)Nc1ccc(S(=O)(=O)N2C[C@@H]3C[C@H](C2)c2c(-c4ccccc4F)ccc(=O)n2C3)cc1,inactive
10,COc1cc2[nH]c3c(=O)n(CC(=O)NCCc4ccc(S(N)(=O)=O)cc4)cnc3c2cc1OC,inconclusive: 15%
11,COc1cccc2cc(C(=O)NC(C)=O)c(=Nc3ccccc3F)oc12,active: 33%
12,O=C(NC1CCCCCC1)C1CCC(CNS(=O)(=O)c2cccc3nsnc23)CC1 (stereo not given),inactive
13,CCOC(=O)C1(C/C=C/c2ccccc2)CCCN(C(=O)c2ccc3c(c2)no[n+]3[O-])C1 (stereo not given),inconclusive: 21%
14,CCC(C)N(Cc1ccncc1)Cc1nn(C)cc1Cl (stereo not given),inconclusive: 21%
15,O=C(/C=C/c1ccc([N+](=O)[O-])cc1)Nc1ncc([N+](=O)[O-])s1,inconclusive: 16%
16,O=C(CCS(=O)(=O)c1cccc2nonc12)NCCc1ccccc1Cl,inconclusive: 17%
17,Cc1ccc(N2NC(=O)/C(=C/c3ccc(-c4ccc(Cl)c(C(=O)O)c4)o3)C2=O)cc1,inconclusive: 15%
18,Cc1cc(N2CCCCC2)nc2ccc(NC(=O)CCC(=O)N3CCN(C)CC3)cc12,inconclusive: 18%
19,Cc1cc(C)c2c(=O)[nH]n(C3CCCCCC3)c2n1,inconclusive: 12%
20,CN(Cc1nnc(-c2ccccc2)o1)C(=O)C1CCCN(Cc2ccco2)C1 (stereo not given),inconclusive: 12%
21,CC1=CC(C)(C)N(S(=O)(=O)c2ccc(Br)cc2)c2ccccc21,inconclusive: 13%
22,COCCNC(=O)CSc1nc(-c2ccc(SC)cc2)[nH]c1-c1ccc(F)cc1,inactive
23,O=C(Nc1ccccc1)Oc1ccc(F)cc1,inconclusive: 14%
24,COC(=O)C1=C(NC(=O)c2cc(C)cc(C)c2)CCS1,active: 50%

row,Compound,inhibition
1,COc1ccc(N=c2sc(C3=c4ccccc4=NC3=O)c(O)n2-c2ccc(OC)cc2)cc1,inconclusive: 18%
2,CC(C)NC(=O)C1CCCN(S(C)(=O)=O)C1 (stereo not given),inconclusive: 22%
3,CC1=C(C(=O)OC(C)(C)C)C(c2ccc(F)cc2)C(C#N)=C(N)O1 (stereo not given),inactive
4,O=C(O)c1[nH]c2ccccc2c1CC(=O)N1CCCCC1,inactive
5,CCN(CC)S(=O)(=O)c1ccc2oc(C(=O)NC3CCCCC3C)c(C)c2c1 (stereo not given),inactive
6,COc1cccc(N2COc3cc(C)c(Cl)c(C)c3C2)c1,inactive
7,NC(=O)c1c(NC(=O)c2cc(-c3cccs3)on2)sc2c1CCCC2,inactive
8,O=C(O)CCc1ccc(-c2cccs2)n1-c1ccc(Br)cc1,inconclusive: 14%
9,CCOc1cc2c(cc1OCC)C(c1ccc(Cl)cc1)OC(=O)C2 (stereo not given),inconclusive: 15%
10,CN1C[C@@H](NS(=O)(=O)c2ccc(C#N)cc2)C[C@H]1c1nc(-c2ccc(OC(F)(F)F)cc2)no1,inconclusive: 29%
11,CCc1cccc(NS(=O)(=O)c2cc(Br)cc3c2N(C(=O)C2CC2)CC3)c1,inconclusive: 13%
12,CN(C)CCNC(=O)COc1ccc(Cl)cc1Cl,inconclusive: 14%
13,NC(=O)NO,inconclusive: 26%
14,Cc1cc(C)c(-n2nnnc2SCc2nc(N)nc(N3CCOCC3)n2)c(C)c1,inactive
15,O=C(c1cc2cc(Br)ccc2oc1=O)N1CCSC1c1ccc([N+](=O)[O-])cc1 (stereo not given),inconclusive: 11%
16,CSc1nc(C(=O)N2CCCC(Cn3cc(C(C)(C)C)nn3)C2)cs1 (stereo not given),inconclusive: 10%
17,O=C(O)C[C@@H]1CCN(C(=O)C2CCCC2)C[C@@H]1CCN1CCN(c2ccccc2)CC1,inconclusive: 12%
18,O=c1c2c(C(F)(F)F)cccc2ncn1CCN1CCNCC1,inconclusive: 13%
19,CC1CCN(C(=O)CSc2cc(=O)n(C)c3ccccc23)CC1,inactive
20,c1ccc(C(c2c[nH]c3ccccc23)c2c[nH]c3ccccc23)nc1,inconclusive: 12%
21,COC(=O)Cn1c(=O)sc2ccccc21,inconclusive: 12%
22,Cc1ccc2ncccc2c1CNCC1(O)CCCN(CC2CCC2)C1=O (stereo not given),inconclusive: 13%
23,Cc1ccoc1C(=O)NCC1(Cn2ccnc2)CC1,inconclusive: 22%

# An excerpt of these results, bar-delimited:
row | Compound | inhibition
19 | CC1CCN(C(=O)CSc2cc(=O)n(C)c3ccccc23)CC1 | inactive
20 | c1ccc(C(c2c[nH]c3ccccc23)c2c[nH]c3ccccc23)nc1 | inconclusive: 12%
